Assay results reported in US9617530B2, “Acetyl-CoA carboxylase herbicide resistant sorghum” (Kansas State University Research Foundation, Inc., priority 2007, dated 2017).
At least one structure is not confirmed: it was looked up by name or label, or the drawing left a doubt.

System: Tx2783, an herbicide susceptible elite sorghum genotype
Test: Greenhouse herbicide selection, spray on susceptible elite check
Assay type: in vivo, Sorghum bicolor (L.) Moench
Conditions: 0.09 lb ai clethodim acre^-1 at 18 days after planting
Source text: Seeds of 83 wild sorghum populations from Bolivia were planted in a greenhouse for comparison with Tx2783, an herbicide susceptible elite sorghum genotype. Wild sorghum genotypes were planted in flats containing MetroMix 360 potting soil (Sun Gro) and greenhouse grown. Tx2783 was planted with the wild accessions in each flat for comparison. In one selection using clethodim, plants were sprayed with 0.09 lb ai clethodim acre^−1 at 18 days after planting. […] In one selection using fluoazifop-P, flats with Tx2783 and wild accessions were sprayed with a rate of 0.12 lb ai fluazifop-P acre^−1 at 18 days after planting and with 0.36 lb ai fluazifop-P acre^−1 at 32 days after planting. […] In a third experiment, plants were sprayed with a rate of 0.05 lb ai quizalofop acre^−1 at 18 days after planting and with 0.11 lb ai quizalofop acre^−1 at 32 days after planting.

CCSC(C)CC1CC(=O)C(/C(CC)=N/OC/C=C/Cl)=C(O)C1 (stereo not shown) [clethodim]
plant outcome after spraying: died
